Measured values reported in US20250339426A1, “GCN2 MODULATOR FOR TREATING CANCER” (HIBERCELL, INC., priority 2022, published 2025).
For at least one compound, name, drawing or mass did not settle the structure.

System: ASNS, PHGDH, PUMA, PSAT1, S100A8/A9 in MV4-11 tumors
Test: Tumor IHC, MV4-11 tumors (venetoclax combination study)
Format: in vivo, BALB/c nude mice
Details: end-of-study tumors; single agents and combination
Procedure: Immunohistochemical analysis was carried out on tumors that were collected at the end of the study described in Example 6. Formalin-fixed paraffin-embedded samples were sectioned at 5 μm thickness and mounted on Superfrost Plus microscope slides (Fisher Scientific). All immunohistochemical (IHC) staining was performed on Bond Rx auto-stainer (Leica Biosystems) using the conventional TSA-amplified detection system. Primary antibodies used were as follows: a-ASNS (Cell Signaling Technology #92479), a-PUMA (Cell Signaling Technology #98672), a-PSAT1 (Proteintech #10501-1-AP), a-PHGDH (Proteintech #14719-1-AP), HIF-1a-Novus Biologicals NB 100-479, HIF-2a-Novus Biologicals NB100-122SS, and GLUT-1-EMB Biosciences 07-1401. […]
Slides were imaged with Aperio Versa 200 (Leica Biosystems) whole-slide scanner using 10×/0.32NA objective, and the data were analyzed using custom-written macros in ImageJ/FIJI (NIH). Briefly, 150 μm of outer edges of the tumor sections and necrotic regions (determined by lack of 4′,6-diamidino-2-phenylindole (DAPI) signal or presence of condensed DNA) were eliminated from the analysis. […] Scans of immune-staining were processed to remove background, then total intensity value above appropriate threshold levels was measured and normalized to tissue area. […]

With CC1(C)CCC(CN2CCN(c3ccc(C(=O)NS(=O)(=O)c4ccc(NCC5CCOCC5)c([N+](=O)[O-])c4)c(Oc4cnc5[nH]ccc5c4)c3)CC2)=C(c2ccc(Cl)cc2)C1 [venetoclax, reference compound] the S100A8/A9 levels was “significantly reduced”.
